Article PMC4199500

The chains behind the UniProt entries cited, without tags or fusion partners.
UniProt P31947: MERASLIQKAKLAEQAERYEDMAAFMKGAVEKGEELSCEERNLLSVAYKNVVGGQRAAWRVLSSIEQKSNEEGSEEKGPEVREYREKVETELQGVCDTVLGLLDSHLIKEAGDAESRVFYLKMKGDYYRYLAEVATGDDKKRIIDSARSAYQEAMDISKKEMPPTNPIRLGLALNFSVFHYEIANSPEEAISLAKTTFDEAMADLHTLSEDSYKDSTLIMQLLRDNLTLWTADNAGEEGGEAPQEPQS

Molecular target: HA-tagged 14-3-3σ (UniProt P31947)
Assay: co-IP; HEK293T cells co-transfected with combinations of HA-14-3-3σ, Myc- or V5-TDP-43 and Flag-FOXO, 1 mM H2O2 stress; lysis in 50 mM Tris-HCl pH 8.0, 150 mM NaCl, 0.4 mM EDTA, 1% NP-40, 0.05% sodium deoxycholate; anti-HA antibody overnight at 4°C, protein G-Sepharose, western blotting

## V5-TDP-43 ΔNLS (mutant TDP-43 lacking the nuclear localization signal) (from UniProt Q13148)
  binding: binds

These are yes or no findings as the source states them, for the method shown. In cells and extracts the contact can be indirect. Binding calls can cover weak binding; strength is not graded here.
